Measurements as given in patent US20220288223A1 (The Regents of the University of California, priority 2019, published 2022).
The same purity stands for every peptide and may come from a single statement.

experiment: general procedure: Fmoc solid-phase peptide synthesis; conditions: conjugation step, analytical HPLC combined with mass spectrometry

Final HPLC purity, >90% purity:
acetyl-GSGSGSQLGPYELWELSHGSGS-PEG-NleTPRSFL-(diamino proprionic)-PEG24-NHS
acetyl-GSGSGSQLGPYELWELSHGSGS-PEG-NleTPRSFL-(diamino proprionic)-PEG24-maleimide
acetyl-HIHDDLLRYYGW-peg-NleTPRSFL-(diamino proprionic)-PEG24-NHS
acetyl-HIHDDLLRYYGW-peg-NleTPRSFL-(diamino proprionic)-PEG24-maleimide
acetyl-QGQSGQCISPRGCPDGPYVMY-peg-NleTPRSFL-(diamino proprionic)-PEG24-NHS
acetyl-QGQSGQCISPRGCPDGPYVMY-peg-NleTPRSFL-(diamino proprionic)-PEG24-maleimide

same assay, conditions: whole synthesis, analytical HPLC combined with mass spectrometry

Final HPLC purity, >90% purity:
acetyl-(GSGSGSQLGPYELWELSHGSGS)-PEG6-(Nle)TPRSFL-(diamino proprionic (Dap))-amide
acetyl-(HIHDDLLRYYGW)-PEG6-(Nle)TPRSFL-(diamino proprionic (Dap))-amide
acetyl-QGQSGQCISPRGCPDGPYVMY-PEG6-(Nle)TPRSFL-(diamino proprionic)-amide
